According to patent US10626178B2, “Treatment of mood and stress related disorders” (priority 2013, dated 2020):
At least one structure is not confirmed: it was looked up by name or label, or the drawing left a doubt.

What was measured:
DG microglia [1] = test: DG microglia number and morphology after unpredictable stress (US/CUS); format: in vivo, mice
Procedure: (§1) Subjects were exposed to chronic unpredictable stress (CUS), consisting of daily exposure to two stressors in a random order over a 5-week period. The effect of a shorter period of unpredictable stress was examined by exposing mice to various combinations of 2-3 of the same stressors over a period of 2 days. The list of CUS stressors included: cage shaking for 1 h with loud music and lights, on, lights on during the entire night (12 h), lights-off for 3 h during the daylight phase, flashing (stroboscopic) light for 6 h, placement in 4° C. cold room for 1 h, mild restraint (in small cages) for 2 h, 45° cage tilt for 14 h, wet cage for 14 h, exposure to fox, ferret, bobcat, or coyote smell for 2 h, noise in the room for 3 h, and water deprivation for 12 h during the dark period.
Animals were perfused trans-cardially with cold PBS followed by 4% paraformaldehyde in 0.1 M PBS, and the brains were quickly removed and placed in 4% paraformaldehyde. After 24 h the brains were placed in 30% sucrose solution in PBS and then frozen in OCT.
In some experiments microglia were visualized using an antibody to the microglia activation marker ionized calcium-binding adapter molecule-1 (Iba-1). Brain sections were first fixed in 2% paraformaldehyde, and after 3 PBS washes they were incubated over-night in 3% normal goat serum in 5% BSA with the primary antibody (rabbit anti Iba-1 1:220, Wako, Japan) at 4° C. […]
Images were captured using Nikon Eclipse fluorescent microscope and CI Nikon confocal microscope and camera. The number of GFP-labeled microglia (and in some studies the number of BrdU-labeled microglia and other cells), as well and the microglial soma area were automatically measured at ×10 magnification in a defined area exclusively containing the entire Dentate Gyrus or prelimbic cortex, for each slide, using Nikon Imaging Elements Software (NIS-Elements). Microglia processes length was measured by capturing images at 40× magnification and by manual tracing of the processes of 4 randomly selected cells/section their processes using the NIS Elements software.

DG microglia [2] = test: caspase-3 and TUNEL staining of microglia after US exposure; format: in vivo, mice; details: 3-4 days following initiation of US exposure; minocycline vs water only
CUS-exposed mice [3] = test: Sucrose preference test; format: in vivo
Procedure: as §1, with “dark period. Following baseline adaptation to sucrose for several days, animals were presented in the beginning of the dark circadian phase with two graduated drinking tubes, one containing tap water and the other 2% sucrose solution for 3 hr. Sucrose preference was calculated as the percent of sucrose consumption out of the total drinking volume.” for “dark period.”

CUS-exposed mice [4] = test: Social exploration test; format: in vivo; details: 5-weeks CUS-exposed mice treated for 2 additional weeks of CUS
Procedure: as §1, with “dark period. Each subject was placed in an observation cage and allowed to habituate to the cage for 15 min, following which a male juvenile was placed in the cage. Social exploration, defined as the time of near contact between the nose of the subject and the juvenile conspecific, was then recorded for three minutes, using computerized in-house software.” for “dark period.”

CUS-exposed mice [5] = test: Porsolt forced swim test; format: in vivo; details: 5-weeks CUS-exposed mice treated for 2 additional weeks of CUS
CUS-exposed mice [6] = test: CUS model, overall depressive-like behavior; format: in vivo; details: administration to mice with established CUS-induced depressive-like behavior
Procedure: as §1

IL-1 = details: reported in the art; cited from earlier work
[7] = 5-weeks CUS, drug beginning two days before and throughout CUS

In the case of `CN(C)c1ccc(O)c2c1C[C@H]1C[C@H]3[C@H](N(C)C)C(O)=C(C(N)=O)C(=O)[C@@]3(O)C(O)=C1C2=O` [minocycline], the DG microglia number (DG microglia [1]; 5-weeks CUS-exposed mice treated for 2 additional weeks of CUS (imipramine, minocycline in drinking water; GM-CSF i.p. 3 time/week)) is reported as “significant reductions in DG microglia numbers”, the hippocampal microglia number (DG microglia [1]; [7]) is reported as “blocked the decline in hippocampal microglia number” and the “number of hippocampal (DG) microglia” value (DG microglia [1]; 2 days of US exposure, drug via drinking water beginning 2 days before US initiation (minocycline 40, imipramine 20 mg/kg/day)) is reported as “completely reversed the increase in hippocampal microglia”. The TUNEL-stained apoptotic microglia (DG microglia [2]) was “less caspase-3-labeled and TUNEL-stained apoptotic microglia”, the caspase-3-labeled microglia (DG microglia [2]) was “less caspase-3-labeled” and the sucrose preference (CUS-exposed mice [3]; 5-weeks CUS-exposed mice treated for 2 additional weeks of CUS) was “but not”. The sucrose preference (CUS-exposed mice [3]; [7]) was “completely prevented the suppressive effects of CUS on sucrose preference”, the social exploration time (CUS-exposed mice [4]) was “further reductions were evident” and the floating time (CUS-exposed mice [5]) was “significantly elevated floating time”. The “effect on established CUS-induced depressive-like behavior” value (CUS-exposed mice [6]) was “had no beneficial effect” and the “stress-induced hypothalamic IL-1 secretion” value (IL-1) was “block stress-induced hypothalamic IL-1 secretion”.
